The source of these data is PMC9788671.

Amino acid sequences for entries named in this document (tags omitted). Residues count along the entry.
UniProt Q9NZV8: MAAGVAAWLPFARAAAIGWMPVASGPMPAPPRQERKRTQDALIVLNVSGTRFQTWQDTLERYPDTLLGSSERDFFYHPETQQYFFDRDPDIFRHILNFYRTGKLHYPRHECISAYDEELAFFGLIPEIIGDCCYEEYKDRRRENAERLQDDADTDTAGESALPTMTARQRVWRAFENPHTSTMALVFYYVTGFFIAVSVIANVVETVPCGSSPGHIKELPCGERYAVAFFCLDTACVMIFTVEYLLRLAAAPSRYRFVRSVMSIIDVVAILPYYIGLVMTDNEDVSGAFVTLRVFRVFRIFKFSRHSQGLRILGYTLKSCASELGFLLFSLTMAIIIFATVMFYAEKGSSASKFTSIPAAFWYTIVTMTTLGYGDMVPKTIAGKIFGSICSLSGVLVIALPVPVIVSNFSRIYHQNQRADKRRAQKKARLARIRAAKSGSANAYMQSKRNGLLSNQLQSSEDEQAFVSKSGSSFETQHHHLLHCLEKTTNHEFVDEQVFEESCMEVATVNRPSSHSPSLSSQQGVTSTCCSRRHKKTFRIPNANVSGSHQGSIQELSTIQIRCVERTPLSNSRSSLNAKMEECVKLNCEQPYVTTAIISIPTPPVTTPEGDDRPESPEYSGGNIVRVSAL
UniProt P08644: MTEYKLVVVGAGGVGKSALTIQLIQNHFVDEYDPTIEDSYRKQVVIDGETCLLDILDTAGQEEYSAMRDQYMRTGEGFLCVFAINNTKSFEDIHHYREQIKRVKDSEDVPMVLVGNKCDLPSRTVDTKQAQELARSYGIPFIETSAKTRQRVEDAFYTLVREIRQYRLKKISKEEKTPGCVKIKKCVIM
UniProt Q5EB77: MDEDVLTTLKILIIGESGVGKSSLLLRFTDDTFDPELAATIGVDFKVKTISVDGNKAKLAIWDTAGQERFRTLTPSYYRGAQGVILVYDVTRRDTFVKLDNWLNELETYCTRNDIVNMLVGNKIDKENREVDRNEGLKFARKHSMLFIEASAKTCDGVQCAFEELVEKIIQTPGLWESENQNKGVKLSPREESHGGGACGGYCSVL
UniProt P04775: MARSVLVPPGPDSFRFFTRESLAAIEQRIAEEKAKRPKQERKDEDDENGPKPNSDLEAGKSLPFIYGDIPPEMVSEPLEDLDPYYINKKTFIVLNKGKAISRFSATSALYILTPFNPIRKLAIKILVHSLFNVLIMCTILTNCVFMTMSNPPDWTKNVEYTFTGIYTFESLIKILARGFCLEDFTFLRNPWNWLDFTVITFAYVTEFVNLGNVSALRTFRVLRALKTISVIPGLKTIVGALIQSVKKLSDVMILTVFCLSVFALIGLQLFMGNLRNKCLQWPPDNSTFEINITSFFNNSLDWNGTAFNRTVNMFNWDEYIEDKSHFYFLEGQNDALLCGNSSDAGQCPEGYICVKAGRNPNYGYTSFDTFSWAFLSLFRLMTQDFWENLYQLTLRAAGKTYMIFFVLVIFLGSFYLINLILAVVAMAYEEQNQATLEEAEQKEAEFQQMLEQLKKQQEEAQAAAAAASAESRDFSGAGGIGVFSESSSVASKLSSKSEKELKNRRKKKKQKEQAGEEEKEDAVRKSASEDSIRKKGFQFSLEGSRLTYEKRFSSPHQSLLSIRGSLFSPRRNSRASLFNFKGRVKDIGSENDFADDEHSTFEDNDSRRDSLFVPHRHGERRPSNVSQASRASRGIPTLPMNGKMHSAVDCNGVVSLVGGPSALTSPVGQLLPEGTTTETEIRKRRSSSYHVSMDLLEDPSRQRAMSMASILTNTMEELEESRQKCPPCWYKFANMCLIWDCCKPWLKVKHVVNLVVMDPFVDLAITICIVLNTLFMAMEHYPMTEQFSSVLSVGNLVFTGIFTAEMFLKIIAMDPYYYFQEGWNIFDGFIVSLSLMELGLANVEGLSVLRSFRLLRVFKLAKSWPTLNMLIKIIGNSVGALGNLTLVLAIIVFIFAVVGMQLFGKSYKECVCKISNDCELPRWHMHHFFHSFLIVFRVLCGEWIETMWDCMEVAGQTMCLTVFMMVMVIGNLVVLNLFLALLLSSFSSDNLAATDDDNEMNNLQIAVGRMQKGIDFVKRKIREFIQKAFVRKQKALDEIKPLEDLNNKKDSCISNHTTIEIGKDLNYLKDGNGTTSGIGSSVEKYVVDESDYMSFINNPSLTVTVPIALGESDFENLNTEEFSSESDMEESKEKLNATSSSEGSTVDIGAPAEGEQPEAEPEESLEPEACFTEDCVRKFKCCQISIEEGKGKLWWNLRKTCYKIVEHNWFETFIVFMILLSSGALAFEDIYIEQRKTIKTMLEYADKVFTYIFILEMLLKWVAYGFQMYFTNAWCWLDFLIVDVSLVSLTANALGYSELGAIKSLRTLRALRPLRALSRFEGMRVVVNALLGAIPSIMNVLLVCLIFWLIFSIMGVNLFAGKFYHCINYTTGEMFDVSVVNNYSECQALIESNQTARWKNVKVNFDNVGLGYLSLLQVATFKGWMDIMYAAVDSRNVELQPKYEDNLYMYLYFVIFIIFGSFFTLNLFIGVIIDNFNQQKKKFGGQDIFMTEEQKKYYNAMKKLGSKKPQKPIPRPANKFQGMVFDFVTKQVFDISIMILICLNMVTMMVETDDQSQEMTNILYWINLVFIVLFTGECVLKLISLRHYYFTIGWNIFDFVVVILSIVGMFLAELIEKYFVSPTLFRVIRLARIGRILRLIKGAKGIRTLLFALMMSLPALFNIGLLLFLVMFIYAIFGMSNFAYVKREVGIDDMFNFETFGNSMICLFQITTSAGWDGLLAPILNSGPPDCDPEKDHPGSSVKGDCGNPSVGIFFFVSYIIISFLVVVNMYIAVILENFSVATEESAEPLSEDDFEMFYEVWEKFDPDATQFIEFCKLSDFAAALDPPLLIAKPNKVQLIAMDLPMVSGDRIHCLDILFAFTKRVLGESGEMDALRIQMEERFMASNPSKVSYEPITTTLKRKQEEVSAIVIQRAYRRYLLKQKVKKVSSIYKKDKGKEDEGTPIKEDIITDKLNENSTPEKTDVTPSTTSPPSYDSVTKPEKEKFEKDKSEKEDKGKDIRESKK
UniProt P28023: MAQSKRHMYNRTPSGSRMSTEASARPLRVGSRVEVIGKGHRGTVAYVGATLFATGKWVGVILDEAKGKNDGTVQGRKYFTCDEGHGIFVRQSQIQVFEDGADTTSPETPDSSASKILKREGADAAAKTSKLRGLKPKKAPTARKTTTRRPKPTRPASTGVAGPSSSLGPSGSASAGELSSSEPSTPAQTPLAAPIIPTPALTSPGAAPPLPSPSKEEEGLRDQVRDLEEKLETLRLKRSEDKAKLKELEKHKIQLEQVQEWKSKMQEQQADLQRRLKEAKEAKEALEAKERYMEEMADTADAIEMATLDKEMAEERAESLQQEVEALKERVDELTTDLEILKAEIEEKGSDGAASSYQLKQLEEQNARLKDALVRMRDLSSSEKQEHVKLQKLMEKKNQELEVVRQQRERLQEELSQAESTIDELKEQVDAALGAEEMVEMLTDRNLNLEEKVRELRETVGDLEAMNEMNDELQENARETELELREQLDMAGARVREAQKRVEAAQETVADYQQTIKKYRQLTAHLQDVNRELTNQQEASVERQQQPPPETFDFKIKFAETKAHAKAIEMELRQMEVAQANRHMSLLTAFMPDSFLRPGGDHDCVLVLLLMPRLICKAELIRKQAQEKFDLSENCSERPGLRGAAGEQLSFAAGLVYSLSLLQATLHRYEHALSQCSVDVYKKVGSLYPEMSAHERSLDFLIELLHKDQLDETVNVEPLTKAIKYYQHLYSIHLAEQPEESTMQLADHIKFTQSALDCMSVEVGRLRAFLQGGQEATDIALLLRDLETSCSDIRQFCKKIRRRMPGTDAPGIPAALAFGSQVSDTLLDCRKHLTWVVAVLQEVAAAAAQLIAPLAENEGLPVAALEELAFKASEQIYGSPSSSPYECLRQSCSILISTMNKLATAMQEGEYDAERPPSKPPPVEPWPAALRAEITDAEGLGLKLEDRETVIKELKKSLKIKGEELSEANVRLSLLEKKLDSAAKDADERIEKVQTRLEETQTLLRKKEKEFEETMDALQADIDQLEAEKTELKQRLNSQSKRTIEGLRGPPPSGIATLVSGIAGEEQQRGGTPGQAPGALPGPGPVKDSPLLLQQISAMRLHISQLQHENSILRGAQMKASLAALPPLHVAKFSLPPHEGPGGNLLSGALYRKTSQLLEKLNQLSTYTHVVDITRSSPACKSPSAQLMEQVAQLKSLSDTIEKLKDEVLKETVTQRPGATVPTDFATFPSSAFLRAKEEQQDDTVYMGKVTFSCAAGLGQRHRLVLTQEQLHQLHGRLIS
UniProt P85108: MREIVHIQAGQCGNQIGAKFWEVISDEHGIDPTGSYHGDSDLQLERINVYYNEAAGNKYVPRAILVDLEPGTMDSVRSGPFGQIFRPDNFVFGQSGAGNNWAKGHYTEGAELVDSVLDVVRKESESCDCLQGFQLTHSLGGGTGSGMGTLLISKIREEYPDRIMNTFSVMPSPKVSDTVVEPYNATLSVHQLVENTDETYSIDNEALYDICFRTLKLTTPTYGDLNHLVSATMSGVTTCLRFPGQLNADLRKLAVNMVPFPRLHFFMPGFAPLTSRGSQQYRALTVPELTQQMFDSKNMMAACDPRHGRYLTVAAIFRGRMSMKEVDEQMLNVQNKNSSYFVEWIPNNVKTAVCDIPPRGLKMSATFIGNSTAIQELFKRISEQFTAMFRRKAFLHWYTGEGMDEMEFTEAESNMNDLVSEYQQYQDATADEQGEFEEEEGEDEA
UniProt Q5BK63, residues 36-377: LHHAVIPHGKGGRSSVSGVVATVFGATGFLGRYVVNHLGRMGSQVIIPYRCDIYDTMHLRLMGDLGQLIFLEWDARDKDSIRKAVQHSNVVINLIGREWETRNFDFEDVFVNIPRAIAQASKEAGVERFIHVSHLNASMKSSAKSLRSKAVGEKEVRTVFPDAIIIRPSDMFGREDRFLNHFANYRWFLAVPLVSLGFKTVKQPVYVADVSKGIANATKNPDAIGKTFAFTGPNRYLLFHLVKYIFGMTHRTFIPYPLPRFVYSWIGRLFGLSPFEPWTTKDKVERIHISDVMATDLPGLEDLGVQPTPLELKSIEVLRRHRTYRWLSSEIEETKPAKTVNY
UniProt Q5M7W5: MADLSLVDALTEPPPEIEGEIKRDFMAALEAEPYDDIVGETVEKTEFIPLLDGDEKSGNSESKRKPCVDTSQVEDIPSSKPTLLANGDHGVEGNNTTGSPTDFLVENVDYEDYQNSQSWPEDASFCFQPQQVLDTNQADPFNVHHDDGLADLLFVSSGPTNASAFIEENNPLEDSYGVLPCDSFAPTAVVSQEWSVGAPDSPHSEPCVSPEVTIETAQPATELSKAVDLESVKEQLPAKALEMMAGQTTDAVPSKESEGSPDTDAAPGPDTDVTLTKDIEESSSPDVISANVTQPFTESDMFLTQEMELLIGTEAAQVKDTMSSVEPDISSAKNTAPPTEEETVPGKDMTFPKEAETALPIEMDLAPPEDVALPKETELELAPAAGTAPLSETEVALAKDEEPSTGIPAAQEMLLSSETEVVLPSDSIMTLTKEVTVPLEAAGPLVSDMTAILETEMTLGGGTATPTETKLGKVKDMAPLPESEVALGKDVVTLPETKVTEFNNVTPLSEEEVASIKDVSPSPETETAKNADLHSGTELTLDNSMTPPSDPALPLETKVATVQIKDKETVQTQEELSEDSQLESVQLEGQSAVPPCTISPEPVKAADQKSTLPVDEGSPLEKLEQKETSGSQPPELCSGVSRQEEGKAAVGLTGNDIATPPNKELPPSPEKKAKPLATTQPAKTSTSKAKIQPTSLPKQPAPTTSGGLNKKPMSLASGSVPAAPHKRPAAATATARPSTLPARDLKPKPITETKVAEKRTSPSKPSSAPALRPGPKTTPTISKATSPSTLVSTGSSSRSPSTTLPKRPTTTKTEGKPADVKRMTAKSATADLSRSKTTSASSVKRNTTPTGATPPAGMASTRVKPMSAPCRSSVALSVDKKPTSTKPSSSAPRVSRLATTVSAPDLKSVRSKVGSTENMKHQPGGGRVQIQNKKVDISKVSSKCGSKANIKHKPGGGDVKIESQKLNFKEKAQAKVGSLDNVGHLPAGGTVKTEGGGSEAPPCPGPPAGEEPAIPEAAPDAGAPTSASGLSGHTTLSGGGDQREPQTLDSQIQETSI
UniProt O35824: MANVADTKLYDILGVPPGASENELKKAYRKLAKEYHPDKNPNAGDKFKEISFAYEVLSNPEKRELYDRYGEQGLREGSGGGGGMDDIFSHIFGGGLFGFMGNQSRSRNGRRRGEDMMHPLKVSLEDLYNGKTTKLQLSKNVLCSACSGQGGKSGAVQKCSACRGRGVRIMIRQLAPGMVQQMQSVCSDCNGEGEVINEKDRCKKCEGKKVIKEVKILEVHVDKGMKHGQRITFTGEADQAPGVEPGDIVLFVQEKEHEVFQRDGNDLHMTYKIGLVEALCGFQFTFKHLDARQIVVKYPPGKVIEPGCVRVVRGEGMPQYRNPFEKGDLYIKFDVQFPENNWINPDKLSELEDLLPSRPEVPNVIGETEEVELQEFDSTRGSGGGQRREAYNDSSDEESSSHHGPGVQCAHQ

Assay [1] addresses TAP-Kv4.2 (human) (UniProt Q9NZV8). Briefly: affinity purification with mass spectrometry; TAP-Kv4.2 expressed by lentivirus in rat hippocampal neurons, harvested at DIV14; strong lysis buffer (1% Triton X-100, 0.5% deoxycholate in PBS, pH 7.4); streptavidin resin, then calmodulin resin; gel cut into high and low molecular weight fragments; no MS of the control sample.
Assay [2] has the same target. Briefly: affinity purification with mass spectrometry; TAP-Kv4.2 expressed by lentivirus in rat hippocampal neurons, harvested at DIV14; weak lysis buffer of the kit (0.1% NP-40); streptavidin resin, then calmodulin resin; gel cut into high and low molecular weight fragments; no MS of the control sample.

These are yes or no findings as the source states them, for the method shown. In cells and extracts the contact can be indirect. Here binding means that the protein was enriched with, or labelled near, the bait; the list need not be complete.

On to Zfr (from UniProt Q562A2 1-1073), for which, in the assay with TAP-Kv4.2 (human) [1], the binding result was “binds”.
Consider Kras (from UniProt P08644 1-189), for which the binding entry with TAP-Kv4.2 (human) [1] is “binds”.
As for Agap2 (from UniProt Q8CGU4 1-1186), the binding result in the assay with TAP-Kv4.2 (human) [1] and with TAP-Kv4.2 (human) [2] was “binds” each time.
Turning to Eif3a (from UniProt Q1JU68 1-1354), in the assay with TAP-Kv4.2 (human) [1], the binding result is on record as “binds”.
Lrpprc (from UniProt Q5SGE0 78-1392): the binding result in the assay with TAP-Kv4.2 (human) [1] and with TAP-Kv4.2 (human) [2] was “binds” in each case.
As to Sptbn4 (from UniProt A0A0G2K677 1-2609), in the assay with TAP-Kv4.2 (human) [1], the binding entry is “binds”.
For the substance Sipa1l1 (from UniProt O35412 1-1822), the binding entry with TAP-Kv4.2 (human) [1] is listed as “binds”.
Turning to Tjp1 (from UniProt A0A0G2K2P5 1-1765), the binding result in the assay with TAP-Kv4.2 (human) [1] is reported as “binds”.
For the substance Myo9a (from UniProt Q9Z1N3 1-2626), the binding entry with TAP-Kv4.2 (human) [1] is on record as “binds”.
For the substance Gprin1 (from UniProt A0A8I6AJM0 1-914), the binding entry in the assay with TAP-Kv4.2 (human) [1] and in the assay with TAP-Kv4.2 (human) [2] was “binds” each time.
Take Myo5a (from UniProt Q9QYF3 1-1828): the binding entry with TAP-Kv4.2 (human) [1] and in the assay with TAP-Kv4.2 (human) [2] was “binds” each time.
For Rims2 (from UniProt Q9JIS1 1-1555), the binding result in the assay with TAP-Kv4.2 (human) [1] is given as “binds”.
With Akap12 (from UniProt Q5QD51 1-1687), the binding result with TAP-Kv4.2 (human) [1] and with TAP-Kv4.2 (human) [2] was “binds” each time.
Iqgap1 (from UniProt A0A8I6AJK7 1-1776): the binding result with TAP-Kv4.2 (human) [1] is listed as “binds”.
With Hsp90aa1 (from UniProt P82995 1-733), the binding entry with TAP-Kv4.2 (human) [1] and with TAP-Kv4.2 (human) [2] was “binds” in each case.
As to Cacna1b (from UniProt Q02294 1-2336), the binding entry with TAP-Kv4.2 (human) [1] was “binds”.
For Trip12 (from UniProt F1LP64 1-2025), the binding result in the assay with TAP-Kv4.2 (human) [1] is reported as “binds”.
Same read-out and setting: for Tpr (from UniProt F1MA98 1-2360) the value was “binds”.
Consider Atp5a1 (from UniProt P15999 44-553), for which the binding result with TAP-Kv4.2 (human) [1] and with TAP-Kv4.2 (human) [2] was “binds” each time.
In the case of Atp2b2 (from UniProt P11506 1-1243), the binding entry in the assay with TAP-Kv4.2 (human) [1] and with TAP-Kv4.2 (human) [2] was “binds” in each case.
In the case of Arf6 (from UniProt P62332 1-175), in the assay with TAP-Kv4.2 (human) [1], the binding entry is “binds”.
Tenm2 (from UniProt Q9R1K2 1-2774): the binding result with TAP-Kv4.2 (human) [1] and with TAP-Kv4.2 (human) [2] was “binds” in each case.
Scn1a (from UniProt P04774 1-2009): the binding entry with TAP-Kv4.2 (human) [1] was “binds”.
In the case of Ppp3cb (from UniProt P20651 1-525), the binding result with TAP-Kv4.2 (human) [1] and with TAP-Kv4.2 (human) [2] was “binds” in each case.
Regarding Slc25a1 (from UniProt P32089 14-311), the binding entry with TAP-Kv4.2 (human) [1] and with TAP-Kv4.2 (human) [2] was “binds” throughout.
Turning to Myh10 (from UniProt Q9JLT0 1-1976), in the assay with TAP-Kv4.2 (human) [1], the binding result is recorded as “binds”.
As to Ubr4 (from UniProt Q2TL32 1-5194), the binding entry in the assay with TAP-Kv4.2 (human) [1] and with TAP-Kv4.2 (human) [2] was “binds” in each case.
Consider Phb2 (from UniProt Q5XIH7 1-299), for which the binding entry in the assay with TAP-Kv4.2 (human) [1] and with TAP-Kv4.2 (human) [2] was “binds” throughout.
Nf1 (from UniProt P97526 1-2820): in the assay with TAP-Kv4.2 (human) [1], the binding result was “binds”.
Turning to Mast1 (from UniProt Q810W7 1-1570), in the assay with TAP-Kv4.2 (human) [1], the binding result is “binds”.
Turning to PlexinA3 (from UniProt D3ZPX4 20-1872), the binding entry in the assay with TAP-Kv4.2 (human) [1] and with TAP-Kv4.2 (human) [2] was “binds” each time.
Take Kif21b (from UniProt F1M5N7 1-1634): the binding entry in the assay with TAP-Kv4.2 (human) [1] and in the assay with TAP-Kv4.2 (human) [2] was “binds” throughout.
With Cltc (from UniProt P11442 1-1675), the binding entry in the assay with TAP-Kv4.2 (human) [1] and in the assay with TAP-Kv4.2 (human) [2] was “binds” each time.
As to Dync1h1 (from UniProt P38650 1-4644), the binding entry with TAP-Kv4.2 (human) [1] and with TAP-Kv4.2 (human) [2] was “binds” throughout.
For the substance Ank3 (from UniProt O70511 1-2622), the binding result in the assay with TAP-Kv4.2 (human) [1] and with TAP-Kv4.2 (human) [2] was “binds” throughout.
Take Smarca4 (from UniProt Q8K1P7 1-1613): the binding result with TAP-Kv4.2 (human) [1] is “binds”.
As for Fasn (from UniProt P12785 1-2505), the binding result in the assay with TAP-Kv4.2 (human) [1] and with TAP-Kv4.2 (human) [2] was “binds” in each case.
Consider Crebbp (from UniProt Q6JHU9 1-2442), for which the binding entry in the assay with TAP-Kv4.2 (human) [1] is given as “binds”.
In the case of Opa1 (from UniProt Q2TA68 88-960), the binding entry in the assay with TAP-Kv4.2 (human) [1] and with TAP-Kv4.2 (human) [2] was “binds” throughout.
With Mylk2 (from UniProt P20689 1-610), the binding result in the assay with TAP-Kv4.2 (human) [1] was “binds”.
For the substance Rab18 (from UniProt Q5EB77 1-206), the binding result with TAP-Kv4.2 (human) [1] was “binds”.
Take Ppp3ca (from UniProt P63329 1-521): the binding result in the assay with TAP-Kv4.2 (human) [1] and in the assay with TAP-Kv4.2 (human) [2] was “binds” throughout.
In the case of Camk2a (from UniProt P11275 1-478), the binding entry with TAP-Kv4.2 (human) [1] and with TAP-Kv4.2 (human) [2] was “binds” each time.
Regarding Map7d1 (from UniProt A0A8I5ZM56 1-849), the binding entry in the assay with TAP-Kv4.2 (human) [1] was “binds”.
For the substance Scn2a (from UniProt P04775 1-2005), the binding result with TAP-Kv4.2 (human) [1] is “binds”.
Wdr7 (from UniProt Q9ERH3 1-1488): the binding result in the assay with TAP-Kv4.2 (human) [1] and in the assay with TAP-Kv4.2 (human) [2] was “binds” in each case.
On to Ppfia3 (from UniProt Q91Z79 1-1192), for which the binding entry with TAP-Kv4.2 (human) [1] and with TAP-Kv4.2 (human) [2] was “binds” throughout.
Regarding Ppfia4 (from UniProt Q91Z80 1-1043), the binding result with TAP-Kv4.2 (human) [1] is given as “binds”.
Regarding Atp2b4 (from UniProt Q64542 1-1203), the binding entry with TAP-Kv4.2 (human) [1] and with TAP-Kv4.2 (human) [2] was “binds” in each case.
On to Myo18a (from UniProt D3ZFD0 1-2044), for which the binding entry with TAP-Kv4.2 (human) [1] is recorded as “binds”.
Turning to Dctn1 (from UniProt P28023 1-1280), the binding result in the assay with TAP-Kv4.2 (human) [1] and with TAP-Kv4.2 (human) [2] was “binds” in each case.
For the substance Itpr1 (from UniProt P29994 1-2750), the binding result in the assay with TAP-Kv4.2 (human) [1] is “binds”.
Take Hnrnpu (from UniProt Q6IMY8 1-798): the binding result with TAP-Kv4.2 (human) [1] and with TAP-Kv4.2 (human) [2] was “binds” throughout.
Prrc2a (from UniProt Q6MG48 1-2161): the binding result with TAP-Kv4.2 (human) [1] and with TAP-Kv4.2 (human) [2] was “binds” throughout.
As for Ascc3 (from UniProt F1LPQ2 1-2197), the binding entry in the assay with TAP-Kv4.2 (human) [1] was “binds”.
In the case of Kif5c (from UniProt P56536 1-955), the binding entry in the assay with TAP-Kv4.2 (human) [1] and with TAP-Kv4.2 (human) [2] was “binds” throughout.
Regarding Sptan1 (from UniProt P16086 1-2472), the binding result with TAP-Kv4.2 (human) [1] and with TAP-Kv4.2 (human) [2] was “binds” throughout.
In the case of Arf1 (from UniProt P84079 1-181), the binding entry in the assay with TAP-Kv4.2 (human) [1] and in the assay with TAP-Kv4.2 (human) [2] was “binds” each time.
Regarding Map1a (from UniProt P34926 1-2774), in the assay with TAP-Kv4.2 (human) [1], the binding result is listed as “binds”.
In the case of Tubb2a (from UniProt P85108 1-445), the binding entry in the assay with TAP-Kv4.2 (human) [1] and in the assay with TAP-Kv4.2 (human) [2] was “binds” throughout.
With Ubr5 (from UniProt Q62671 1-2788), the binding result in the assay with TAP-Kv4.2 (human) [1] and with TAP-Kv4.2 (human) [2] was “binds” in each case.
As for Kif1b (from UniProt O88658 1-1816), the binding result with TAP-Kv4.2 (human) [1] is “binds”.
Take Kif5b (from UniProt Q2PQA9 1-963): the binding result with TAP-Kv4.2 (human) [1] and with TAP-Kv4.2 (human) [2] was “binds” throughout.
As for Taf10 (from UniProt A6I7M8 1-218), in the assay with TAP-Kv4.2 (human) [1], the binding entry is on record as “binds”.
Rims1 (from UniProt Q9JIR4 1-1615): in the assay with TAP-Kv4.2 (human) [1], the binding result was “binds”.
For Camk2b (from UniProt P08413 1-542), the binding result in the assay with TAP-Kv4.2 (human) [1] and with TAP-Kv4.2 (human) [2] was “binds” throughout.
Take Hspa8 (from UniProt P63018 1-646): the binding entry with TAP-Kv4.2 (human) [1] and with TAP-Kv4.2 (human) [2] was “binds” throughout.
Turning to Ywhae (from UniProt P62260 1-255), the binding result with TAP-Kv4.2 (human) [1] is “binds”.
For the substance Tanc1 (from UniProt Q6F6B3 1-1849), the binding result with TAP-Kv4.2 (human) [1] is “binds”.
As to Ndufa9 (from UniProt Q5BK63 36-377), the binding result with TAP-Kv4.2 (human) [1] was “binds”.
On the same count and under the same terms, in the case of Tanc2 (from UniProt F1LTE0 1-1992) it was “binds”.
For Caskin1 (from UniProt Q8VHK2 1-1430), the binding entry with TAP-Kv4.2 (human) [1] was “binds”.
Turning to Calml3 (from UniProt Q5U206 1-149), in the assay with TAP-Kv4.2 (human) [1], the binding entry is listed as “binds”.
Safb (from UniProt O88453 1-931): the binding entry with TAP-Kv4.2 (human) [1] was “binds”.
Map4 (from UniProt Q5M7W5 1-1057): in the assay with TAP-Kv4.2 (human) [1], the binding result is given as “binds”.
Still for that read-out and setting: in the case of Tsc2 (from UniProt P49816 1-1809) it was “binds”.
As for Bsn (from UniProt O88778 1-3938), in the assay with TAP-Kv4.2 (human) [2], the binding entry is given as “binds”.
As to Dnaja2 (from UniProt O35824 1-412), the binding entry with TAP-Kv4.2 (human) [2] is “binds”.
For the substance Hdac4 (from UniProt Q99P99 1-1077), the binding entry with TAP-Kv4.2 (human) [1] is reported as “binds”.
For the substance Apc (from UniProt P70478 1-2842), in the assay with TAP-Kv4.2 (human) [1], the binding result is “binds”.
For the substance Ncl (from UniProt P13383 1-713), the binding result with TAP-Kv4.2 (human) [2] was “binds”.
Still for that read-out and setting: for Kif5a (from UniProt Q6QLM7 1-1027) the value was “binds”; for Tf (from UniProt P12346 20-698), “binds”; for Ckap4 (from UniProt D3ZH41 1-575), “binds”.
Consider Mark2 (from UniProt O08679 1-722), for which the binding result with TAP-Kv4.2 (human) [2] was “binds”.
On the same count and under the same terms, in the case of Psmc3 (from UniProt Q63569 1-439) it was “binds”.
Take Ndufs4 (from UniProt Q5XIF3 43-175): the binding result with TAP-Kv4.2 (human) [1] is given as “binds”.
